Values from PubChem BioAssay AID743121 (NCATS, 2013).
The whole screen tested about 26,000 reagents; this is a part drawn at random. Over the whole deposit, 167 (0.63%) got an active call. 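Calls are per gene from RSA p-values that are not deposited; an individual active-marked siRNA can sensitise only weakly.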 A number with no mark means an inactive call. Reagents against one gene are numbered here. Further read-outs or replicates are left out here.

Aim: 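Partners whose loss is lethal together with topoisomerase I blockade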 (primary screen)
System: MDA-MB-231 cells, a human breast cancer line
Reagent: single siRNA against human genes, 20 nM siRNA (0.8 pmol per well)
Time to read-out: 120 h (drug added 48 h after transfection, read 72 h later)
Conditions: camptothecin 20 nM (about EC30) for 72 h; vehicle 0.1% DMSO in parallel plates
Measured: 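CellTiter-Glo ATP signal, scaled to control siRNA as percent viability; sensitisation given as log2 of untreated divided by camptothecin-treated viability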
Scale: log2 vehicle/camptothecin viability: higher = stronger sensitisation to camptothecin
Call rule: 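Each gene scored by redundant siRNA activity (RSA) over its individual siRNA ratios; a gene is called active at p < 0.001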

log2 vehicle/camptothecin viability, by gene knocked down and reagent
SHROOM2: #1 0.011; #2 0.118; #3 -0.49; #4 -0.234
RGS12: #1 0.0787; #2 -0.0714; #3 -0.292; #4 -0.256; #5 -0.255; #6 -0.221
NFATC3: #1 0.144; #2 -0.167; #3 -0.14; #4 -0.385
DHFR2: #1 -0.286; #2 0.0568; #3 -0.476; #4 0.0332
SARM1: #1 -0.214; #2 0.851; #3 -0.114; #4 -0.132
BRD1: #1 0.805; #2 -0.0753; #3 -0.114; #4 -0.326
CCR6: #1 -0.252; #2 0.0401; #3 0.551; #4 0.217
GZMM: #1 -0.0354; #2 -0.149; #3 -0.466
PI4K2A: #1 -0.241; #2 -0.0255; #3 -0.383; #4 0.171
VHL: #1 0.231; #2 -0.263; #3 -0.209; #4 0.516
COPB2: #1 1.24; #2 -0.35; #3 -0.404
CRLF1: #1 -0.395; #2 -0.112; #3 -0.0609; #4 -0.034
PTGR1: #1 -0.319; #2 0.146; #3 -0.0208; #4 -0.0631
IFNLR1: #1 0.561; #2 0.0336; #3 0.121; #4 0.0556
TFDP1: #1 0.043; #2 0.0663; #3 0.0728
GABRA2: #1 0.0343; #2 0.191; #3 -0.136; #4 -0.191
CSNK2A2: #1 -0.561; #2 -0.156; #3 0.207; #4 -0.228
PLCL1: #1 0.286; #2 -0.275; #3 -0.222; #4 -0.303
PPP1R13B: #1 -0.218; #2 0.817; #3 -0.115; #4 -0.321
PDE8A: #1 -0.278; #2 -0.196; #3 -0.373; #4 -0.265
PER1: #1 -0.0169; #2 -0.155; #3 -0.12; #4 0.0497
IL10: #1 -0.383; #2 0.111; #3 -0.0612; #4 -0.283

Targets listed so far whose gene name starts with R or r:
log2 vehicle/camptothecin viability, by gene knocked down and reagent
RGS12: #1 0.0787; #2 -0.0714; #3 -0.292; #4 -0.256; #5 -0.255; #6 -0.221
